Results deposited as PubChem BioAssay AID686943 (Drosophila RNAi Screening Center, 2013).
The screen tested about 23,000 reagents; this is a random part of those with a known target gene and a result. 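Extra replicates exist only for a retested subset of genes; insulin dose and duration not given; both raised and lowered dpERK matter.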 Not all columns of the deposit are shown. Not stated in the record: the amount of reagent, the time to read-out.

Assay: 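Search across the genome for regulators of signalling from receptor tyrosine kinase to ERK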 (primary screen)
System: Drosophila S2R+ haemocyte-like cells expressing YFP-tagged ERK (Rolled)
Knock-down reagent: long dsRNA against Drosophila genes
Treatment: insulin stimulation versus unstimulated cells; dose and duration not given
Detection: 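Per-plate z-scores of phospho-ERK immunostaining normalised to YFP-tagged ERK, measured with and without insulin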
Reading the numbers: replicate 1, z-score of dpERK with insulin: higher = more active ERK per ERK-YFP after insulin

replicate 1, z-score of dpERK with insulin, by target gene and reagent
Atg5: DRSC18112 0.22
CG1360: DRSC06406 0.57
CG2540: DRSC19856 0.68
Bre1: DRSC09742 0.82
dao: DRSC01960 -0.66
CG12470: DRSC18620 0.29
Nep3: DRSC20685 -0.49
CG6276: DRSC16007 0.59

Single entries from the entries so far:
Entry for CG1360 [DRSC06406] under “replicate 1, z-score of dpERK with insulin”: 0.57
Result for dao [DRSC01960] in “replicate 1, z-score of dpERK with insulin”: -0.66
CG2540 [DRSC19856], replicate 1, z-score of dpERK with insulin: 0.68

Continued.
replicate 1, z-score of dpERK with insulin, by target gene and reagent
TfAP-2: DRSC11601 0.36
CG11249: DRSC11645 -0.51
Dhc93AB: DRSC16644 0.43
Dpm1: DRSC02018 -0.06
RpL8: DRSC08532 0.13; DRSC08695 -1.52
jbug: DRSC03952 -0.53; DRSC04114 -0.07; DRSC04167 -0.49; DRSC04388 -0.18
bumpel: DRSC16100 1.16
CG3085: DRSC04335 0.24
SoYb: DRSC02901 0.3
CG9928: DRSC03274 0.51
CG5191: DRSC15733 -0.04; DRSC15734 0.94; DRSC21559 1.25
